# In the supplement of paper PMC10849652:
# The chains behind the UniProt entries cited, without tags or fusion partners. Where a name states a change or a piece, a line headed by the entry shows the natural chain unless it says otherwise.
# UniProt Q9UJC5: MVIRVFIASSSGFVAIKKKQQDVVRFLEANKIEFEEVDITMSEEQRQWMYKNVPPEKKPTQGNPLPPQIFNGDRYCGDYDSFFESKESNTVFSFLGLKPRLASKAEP
# UniProt Q8NC51: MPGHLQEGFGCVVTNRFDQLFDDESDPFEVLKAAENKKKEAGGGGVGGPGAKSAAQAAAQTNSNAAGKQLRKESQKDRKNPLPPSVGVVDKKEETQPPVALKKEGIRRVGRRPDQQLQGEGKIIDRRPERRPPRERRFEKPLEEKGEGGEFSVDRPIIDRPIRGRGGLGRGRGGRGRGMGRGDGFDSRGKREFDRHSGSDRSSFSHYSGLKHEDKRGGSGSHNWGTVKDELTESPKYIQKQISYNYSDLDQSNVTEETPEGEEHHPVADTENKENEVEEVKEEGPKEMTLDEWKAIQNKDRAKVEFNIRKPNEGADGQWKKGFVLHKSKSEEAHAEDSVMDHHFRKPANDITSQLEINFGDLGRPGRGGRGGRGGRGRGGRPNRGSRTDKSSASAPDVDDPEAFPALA
# UniProt Q8IUQ4: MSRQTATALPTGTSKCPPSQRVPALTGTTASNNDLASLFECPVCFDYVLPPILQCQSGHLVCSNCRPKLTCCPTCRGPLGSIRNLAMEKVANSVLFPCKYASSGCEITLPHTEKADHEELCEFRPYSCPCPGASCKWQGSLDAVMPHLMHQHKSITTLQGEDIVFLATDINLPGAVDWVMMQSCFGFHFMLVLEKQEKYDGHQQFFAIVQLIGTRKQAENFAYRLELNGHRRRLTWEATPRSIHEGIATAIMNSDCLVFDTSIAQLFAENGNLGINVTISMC
# UniProt P60059: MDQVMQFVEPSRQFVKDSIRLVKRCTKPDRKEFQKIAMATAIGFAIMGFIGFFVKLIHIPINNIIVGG
# UniProt O14796: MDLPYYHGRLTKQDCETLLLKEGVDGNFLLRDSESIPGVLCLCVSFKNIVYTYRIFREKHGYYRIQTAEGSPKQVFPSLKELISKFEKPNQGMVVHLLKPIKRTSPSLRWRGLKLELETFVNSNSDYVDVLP
# UniProt Q587I9: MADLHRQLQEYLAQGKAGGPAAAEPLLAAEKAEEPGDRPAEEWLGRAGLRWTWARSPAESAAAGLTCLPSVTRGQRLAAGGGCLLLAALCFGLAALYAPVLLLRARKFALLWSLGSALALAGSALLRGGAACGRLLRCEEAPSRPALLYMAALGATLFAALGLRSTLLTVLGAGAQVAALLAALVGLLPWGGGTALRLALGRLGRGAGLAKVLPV
# UniProt Q8WWX9, whole entry, looked up: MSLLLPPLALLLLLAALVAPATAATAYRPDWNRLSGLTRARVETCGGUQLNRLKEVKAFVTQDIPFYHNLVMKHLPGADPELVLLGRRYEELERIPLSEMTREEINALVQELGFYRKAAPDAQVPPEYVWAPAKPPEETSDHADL
# UniProt P51688: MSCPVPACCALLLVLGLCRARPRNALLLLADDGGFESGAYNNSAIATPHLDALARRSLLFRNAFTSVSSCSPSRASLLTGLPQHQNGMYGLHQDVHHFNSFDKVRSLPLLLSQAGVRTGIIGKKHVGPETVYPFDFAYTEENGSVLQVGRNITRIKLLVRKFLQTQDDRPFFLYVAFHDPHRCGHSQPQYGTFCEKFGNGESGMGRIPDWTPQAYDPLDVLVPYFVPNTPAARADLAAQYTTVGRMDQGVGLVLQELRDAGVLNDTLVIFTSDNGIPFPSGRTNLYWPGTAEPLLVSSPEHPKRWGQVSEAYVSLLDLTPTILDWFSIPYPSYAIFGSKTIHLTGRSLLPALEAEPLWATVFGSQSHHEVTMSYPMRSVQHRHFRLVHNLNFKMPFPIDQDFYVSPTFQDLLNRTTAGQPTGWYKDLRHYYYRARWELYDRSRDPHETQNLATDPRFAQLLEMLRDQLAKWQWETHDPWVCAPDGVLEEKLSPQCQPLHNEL
# UniProt P05155: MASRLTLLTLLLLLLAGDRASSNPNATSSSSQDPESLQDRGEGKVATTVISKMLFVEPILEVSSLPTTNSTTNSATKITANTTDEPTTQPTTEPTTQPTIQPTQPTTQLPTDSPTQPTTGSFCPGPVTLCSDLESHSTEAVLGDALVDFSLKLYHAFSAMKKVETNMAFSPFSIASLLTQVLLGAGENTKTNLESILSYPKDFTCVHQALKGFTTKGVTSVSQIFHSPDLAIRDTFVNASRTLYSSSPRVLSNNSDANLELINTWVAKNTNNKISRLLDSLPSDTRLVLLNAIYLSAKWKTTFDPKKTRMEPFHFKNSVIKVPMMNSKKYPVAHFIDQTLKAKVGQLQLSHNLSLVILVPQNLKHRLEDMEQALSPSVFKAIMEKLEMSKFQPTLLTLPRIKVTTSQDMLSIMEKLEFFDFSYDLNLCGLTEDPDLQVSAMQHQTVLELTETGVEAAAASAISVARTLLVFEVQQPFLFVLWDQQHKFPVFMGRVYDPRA
# UniProt Q9NP31, whole entry, looked up: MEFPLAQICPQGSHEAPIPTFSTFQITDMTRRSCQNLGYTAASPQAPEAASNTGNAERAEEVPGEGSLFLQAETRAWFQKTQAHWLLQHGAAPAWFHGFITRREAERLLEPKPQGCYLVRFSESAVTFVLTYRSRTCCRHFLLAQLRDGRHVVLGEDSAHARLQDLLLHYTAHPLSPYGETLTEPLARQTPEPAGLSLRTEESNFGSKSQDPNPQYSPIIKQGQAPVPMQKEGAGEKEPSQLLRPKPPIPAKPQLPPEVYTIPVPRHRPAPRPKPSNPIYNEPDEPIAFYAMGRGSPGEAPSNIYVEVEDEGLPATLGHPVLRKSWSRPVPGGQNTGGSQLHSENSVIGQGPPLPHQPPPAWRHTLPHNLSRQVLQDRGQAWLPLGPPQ
# UniProt O95562: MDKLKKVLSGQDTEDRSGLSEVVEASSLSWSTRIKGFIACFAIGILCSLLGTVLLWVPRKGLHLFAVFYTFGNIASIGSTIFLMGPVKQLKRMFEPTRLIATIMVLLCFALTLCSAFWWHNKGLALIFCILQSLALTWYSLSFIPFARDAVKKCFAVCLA
# UniProt Q9H0K1: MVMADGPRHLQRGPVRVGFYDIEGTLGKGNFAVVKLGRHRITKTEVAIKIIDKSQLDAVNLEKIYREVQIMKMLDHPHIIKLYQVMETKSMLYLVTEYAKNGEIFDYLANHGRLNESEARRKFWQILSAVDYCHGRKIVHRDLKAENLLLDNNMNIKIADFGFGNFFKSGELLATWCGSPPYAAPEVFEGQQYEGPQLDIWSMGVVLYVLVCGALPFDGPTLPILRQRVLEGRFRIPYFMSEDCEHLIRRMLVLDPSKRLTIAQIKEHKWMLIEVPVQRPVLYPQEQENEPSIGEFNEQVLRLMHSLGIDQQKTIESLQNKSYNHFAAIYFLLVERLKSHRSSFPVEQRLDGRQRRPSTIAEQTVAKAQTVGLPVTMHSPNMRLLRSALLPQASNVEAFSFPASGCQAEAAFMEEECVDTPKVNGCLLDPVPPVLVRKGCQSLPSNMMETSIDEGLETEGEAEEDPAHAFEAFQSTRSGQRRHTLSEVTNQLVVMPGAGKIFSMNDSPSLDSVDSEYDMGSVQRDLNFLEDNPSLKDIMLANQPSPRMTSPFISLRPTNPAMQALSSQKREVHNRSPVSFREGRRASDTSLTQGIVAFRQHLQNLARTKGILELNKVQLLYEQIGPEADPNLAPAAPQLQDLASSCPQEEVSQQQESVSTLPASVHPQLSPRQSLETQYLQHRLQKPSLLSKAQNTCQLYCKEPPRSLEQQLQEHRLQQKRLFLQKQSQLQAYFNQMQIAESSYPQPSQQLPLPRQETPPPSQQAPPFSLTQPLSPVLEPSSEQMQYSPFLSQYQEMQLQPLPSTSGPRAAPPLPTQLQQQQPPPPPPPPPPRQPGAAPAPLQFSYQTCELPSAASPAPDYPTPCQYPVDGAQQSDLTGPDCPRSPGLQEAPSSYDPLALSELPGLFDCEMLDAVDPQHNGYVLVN
# UniProt A1X283: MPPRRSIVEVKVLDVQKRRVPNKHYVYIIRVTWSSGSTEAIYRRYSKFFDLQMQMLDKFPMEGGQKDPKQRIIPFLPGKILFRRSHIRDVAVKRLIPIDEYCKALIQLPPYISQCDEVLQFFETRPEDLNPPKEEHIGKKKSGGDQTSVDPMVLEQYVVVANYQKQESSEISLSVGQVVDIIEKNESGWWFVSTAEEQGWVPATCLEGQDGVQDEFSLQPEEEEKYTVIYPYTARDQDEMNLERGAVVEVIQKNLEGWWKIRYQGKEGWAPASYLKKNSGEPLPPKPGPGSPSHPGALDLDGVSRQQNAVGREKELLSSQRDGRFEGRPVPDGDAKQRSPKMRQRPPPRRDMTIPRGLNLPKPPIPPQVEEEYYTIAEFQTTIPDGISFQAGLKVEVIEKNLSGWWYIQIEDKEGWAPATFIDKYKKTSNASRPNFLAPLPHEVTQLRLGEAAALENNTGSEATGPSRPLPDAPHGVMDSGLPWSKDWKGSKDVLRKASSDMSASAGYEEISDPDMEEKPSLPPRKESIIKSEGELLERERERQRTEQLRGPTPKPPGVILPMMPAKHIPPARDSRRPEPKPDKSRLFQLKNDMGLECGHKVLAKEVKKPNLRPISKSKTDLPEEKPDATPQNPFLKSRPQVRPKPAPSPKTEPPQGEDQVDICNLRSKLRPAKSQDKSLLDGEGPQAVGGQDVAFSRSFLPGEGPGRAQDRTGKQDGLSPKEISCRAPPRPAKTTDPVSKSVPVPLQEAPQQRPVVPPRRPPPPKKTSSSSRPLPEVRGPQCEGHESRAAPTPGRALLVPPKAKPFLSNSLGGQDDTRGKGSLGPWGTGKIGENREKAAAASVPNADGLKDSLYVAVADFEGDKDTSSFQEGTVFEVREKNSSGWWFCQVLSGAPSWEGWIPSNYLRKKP
# UniProt Q9P0V9: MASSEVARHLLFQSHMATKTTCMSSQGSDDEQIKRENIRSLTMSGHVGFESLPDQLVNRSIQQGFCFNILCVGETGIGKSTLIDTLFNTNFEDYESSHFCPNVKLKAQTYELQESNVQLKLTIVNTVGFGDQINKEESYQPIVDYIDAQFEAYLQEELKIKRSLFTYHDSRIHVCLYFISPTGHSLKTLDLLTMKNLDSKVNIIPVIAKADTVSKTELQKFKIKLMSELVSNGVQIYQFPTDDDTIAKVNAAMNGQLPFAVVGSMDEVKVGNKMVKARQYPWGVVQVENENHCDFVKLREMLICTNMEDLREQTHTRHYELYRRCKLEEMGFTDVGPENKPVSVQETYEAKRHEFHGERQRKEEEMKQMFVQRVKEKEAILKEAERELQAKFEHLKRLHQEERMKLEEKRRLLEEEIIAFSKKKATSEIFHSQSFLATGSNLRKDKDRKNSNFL
# UniProt Q6P4A7: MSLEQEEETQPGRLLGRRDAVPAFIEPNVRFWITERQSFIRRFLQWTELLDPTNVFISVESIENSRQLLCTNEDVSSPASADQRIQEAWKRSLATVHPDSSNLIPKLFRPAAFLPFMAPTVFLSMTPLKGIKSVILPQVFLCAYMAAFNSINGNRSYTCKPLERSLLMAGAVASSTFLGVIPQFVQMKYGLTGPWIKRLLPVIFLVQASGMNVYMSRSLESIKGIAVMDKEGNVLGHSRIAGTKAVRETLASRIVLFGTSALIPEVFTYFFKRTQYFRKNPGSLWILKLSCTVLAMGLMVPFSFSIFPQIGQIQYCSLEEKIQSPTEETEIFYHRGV
# UniProt O75563, whole entry, looked up: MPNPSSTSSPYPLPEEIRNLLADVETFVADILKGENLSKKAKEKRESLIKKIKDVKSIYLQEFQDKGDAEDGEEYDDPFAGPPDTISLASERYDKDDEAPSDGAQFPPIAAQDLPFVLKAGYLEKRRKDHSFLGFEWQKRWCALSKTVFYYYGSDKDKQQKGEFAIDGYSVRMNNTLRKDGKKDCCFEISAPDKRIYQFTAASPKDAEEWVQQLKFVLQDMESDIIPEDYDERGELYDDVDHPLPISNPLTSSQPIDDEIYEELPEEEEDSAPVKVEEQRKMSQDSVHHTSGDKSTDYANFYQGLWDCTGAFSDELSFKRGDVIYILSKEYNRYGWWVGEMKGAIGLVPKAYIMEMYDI
# UniProt P05546: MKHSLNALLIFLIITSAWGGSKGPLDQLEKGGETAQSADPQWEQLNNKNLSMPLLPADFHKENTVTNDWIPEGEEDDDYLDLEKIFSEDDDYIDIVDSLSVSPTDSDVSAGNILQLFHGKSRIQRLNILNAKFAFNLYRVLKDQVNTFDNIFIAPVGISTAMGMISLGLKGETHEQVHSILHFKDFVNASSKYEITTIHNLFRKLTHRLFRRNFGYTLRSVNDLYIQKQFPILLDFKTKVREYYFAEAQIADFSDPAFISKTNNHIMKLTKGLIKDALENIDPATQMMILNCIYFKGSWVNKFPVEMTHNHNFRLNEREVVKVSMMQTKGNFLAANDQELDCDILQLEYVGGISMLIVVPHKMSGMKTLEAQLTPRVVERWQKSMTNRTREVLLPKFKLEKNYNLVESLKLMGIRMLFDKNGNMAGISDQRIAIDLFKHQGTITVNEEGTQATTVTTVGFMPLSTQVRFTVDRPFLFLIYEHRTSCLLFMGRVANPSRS
# This is one part of the list. Residues, ends and D or L forms follow the SMILES beside them. *: point of attachment. Cbz = O=C(OCc1ccccc1)*
# Experiments:
# Assay in all cases: log2 fold change, soluble protein after heating vs DMSO (PISA); higher = thermal stabilisation; K562 cells, 10 uM, 30 min; active = over 0.2 and 3.5 SD of the protein, either way, in both replicates (recomputed)
# erlotinib = compound: C#Cc1cccc(Nc2ncnc3cc(OCCOC)c(OCCOC)cc23)c1 [erlotinib]
# Method in brief: (§1)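 For each measurement, 10 μM compound was applied for 30 min to K562 cells at 2×10^6 cells/mL. Aliquots were heated for 3 min across 48°C-58°C, pooled, and extracted in PBS with 0.5% NP-40 at 4°C; the supernatant after 21,000xg for 90 min was soluble protein. This was quantified by TMTpro 16plex LC-MS/MS with channel sums equalised, and thermal stability was reported relative to control samples from duplicates, on a log2 fold-change scale.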
# [1] = compound: C/C(=N\NC(=O)C1=CC(=CC=C1)S(=O)(=O)N2CCOCC2)/C3=C(C=CC(=C3)Cl)O
# Method in brief: as §1
# [2] = compound: C1=CC(=C(C=C1Cl)C2=NC3=NC=CN=C3C(=N2)NC4=CC=NC=C4)F
# Method in brief: as §1
# [3] = compound: C1=CC(=CC=C1C2=NC3=C(N2)C=C(C=C3)C(=O)N)OC4=CC=C(C=C4)Cl
# Method in brief: as §1
# [4] = compound: C1=CC2=C(C=CC(=C2)/C=C\3/C(=O)NC(=NCC4=CC=CS4)S3)N=C1
# Method in brief: as §1
# [5] = compound: C1=CC2=NC=CN=C2C=C1/C=C/3\C(=O)NC(=O)S3
# Method in brief: as §1
# [6] = compound: C1=CC=C(C=C1)C2=NC(=C(N2)C3=CC=NC=C3)C4=CC(=C(C=C4)Cl)O
# Method in brief: as §1
# [7] = compound: C1=CC=C2C(=C1)C3=NNC4=CC=CC(=C43)C2=O
# Method in brief: as §1
# [8] = compound: C1CCN(C1)C(=O)NC2=CC=CC(=C2)NC3=NC=C(C(=N3)NCCC4=CN=CN4)Br
# Method in brief: as §1
# [9] = compound: C1CN(CCC1(CC2=CC=C(C=C2)Cl)N)C3=NC=NC4=C3C=CN4
# Method in brief: as §1
# IRAK-1-4 Inhibitor I = compound: C1COCCN1CCN2C3=CC=CC=C3N=C2NC(=O)C4=CC(=CC=C4)[N+](=O)[O-] [IRAK-1-4 Inhibitor I]
# Method in brief: as §1
# ibrutinib = compound: C=CC(=O)N1CCC[C@@H](n2nc(-c3ccc(Oc4ccccc4)cc3)c3c(N)ncnc32)C1 [ibrutinib]
# Method in brief: as §1
# [10] = compound: CC(=O)c1cnc2ccc(-c3cc(Cl)c(O)c(Cl)c3)nc2c1N[C@H]1CC[C@H](CN(C)C)CC1
# Method in brief: as §1
# ralimetinib = compound: CC(C)(C)Cn1c(N)nc2ccc(-c3[nH]c(C(C)(C)C)nc3-c3ccc(F)cc3)nc21 [ralimetinib]
# Method in brief: as §1
# [11] = compound: CC(C)(O)CC(=O)NCCn1ccc2ncnc(Nc3ccc(Oc4cccc(C(F)(F)F)c4)c(Cl)c3)c21
# Method in brief: as §1
# [12] = compound: CC(C)C1=C2N=C(C=C(N2N=C1)NCC3=CC=CC=C3)NCCCCCCN
# Method in brief: as §1
# [13] = compound: CC(C)C[C@@H](C=O)NC(=O)[C@H](CC(C)C)NC(=O)[C@H](CC(C)C)NC(=O)OCc1ccccc1
# Method in brief: as §1
# pinometostat = compound: CC(C)N(C[C@H]1O[C@@H](n2cnc3c(N)ncnc32)[C@H](O)[C@@H]1O)[C@H]1C[C@@H](CCc2nc3cc(C(C)(C)C)ccc3[nH]2)C1 [pinometostat]
# Method in brief: as §1
# [14] = compound: CC1=C(C(CC(=O)N1)C2=CC=C(C=C2)C(F)(F)F)C(=O)NC3=C(C=C4C(=C3)C=NN4)F
# Method in brief: as §1
# [15] = compound: CC1=C(C2=C(C=C1)C(=O)C3=CC=CC=C3N2CCCN)C
# Method in brief: as §1
Target,log2 fold change (erlotinib),log2 fold change [1],log2 fold change [2],log2 fold change [3],log2 fold change [4],log2 fold change [5],log2 fold change [6],log2 fold change [7],log2 fold change [8],log2 fold change [9],log2 fold change (IRAK-1-4 Inhibitor I),log2 fold change (ibrutinib),log2 fold change [10],log2 fold change (ralimetinib),log2 fold change [11],log2 fold change [12],log2 fold change [13],log2 fold change (pinometostat),log2 fold change [14],log2 fold change [15]
SH3BGRL2 (UniProt Q9UJC5),inactive: -0.093,inactive: 0.066,inactive: -0.031,inactive: -0.033,inactive: -0.006,inactive: -0.088,inactive: 0.105,inactive: 0.002,inactive: -0.035,inactive: -0.01,inactive: 0.049,inactive: 0.075,inactive: -0.008,inactive: -0.071,inactive: -0.021,inactive: 0.012,inactive: 0.079,inactive: -0.007,inactive: -0.058,inactive: 0.002
SGPP1 (UniProt Q9BX95),inactive: 0.003,inactive: -0.071,inactive: -0.02,inactive: -0.011,inactive: 0.04,inactive: -0.106,–,inactive: -0.041,inactive: -0.069,inactive: 0.098,inactive: 0.02,inactive: 0.089,inactive: 0.04,–,inactive: -0.215,inactive: -0.229,–,inactive: -0.027,inactive: -0.028,inactive: -0.184
SERBP1 isoform 3 (UniProt Q8NC51),inactive: 0.06,inactive: -0.266,inactive: -0.171,inactive: -0.05,inactive: -0.023,inactive: 0.035,inactive: -0.027,inactive: -0.049,inactive: 0.021,inactive: 0.376,–,inactive: 0.103,inactive: 0.074,inactive: 0.024,inactive: 0.282,inactive: 0,inactive: 0.032,–,inactive: 0.038,inactive: -0.079
SEPTIN5 (UniProt G3XAH0),inactive: 0.009,inactive: -0.251,inactive: 0.146,inactive: 0.076,inactive: -0.022,inactive: -0.035,inactive: 0.014,inactive: -0.24,inactive: 0.009,inactive: 0.049,–,inactive: 0.018,inactive: 0.123,inactive: -0.056,inactive: -0.133,inactive: 0.092,inactive: -0.009,–,–,inactive: 0.027
SIAH1 isoform 2 (UniProt Q8IUQ4),inactive: 0.053,inactive: 0.039,inactive: -0.011,inactive: -0.047,inactive: -0.016,inactive: 0.201,–,inactive: 0.037,inactive: -0.037,inactive: -0.027,inactive: 0.179,inactive: -0.078,inactive: 0.045,–,inactive: -0.094,inactive: 0.008,–,inactive: -0.141,–,inactive: 0.016
SEC61G (UniProt P60059),inactive: 0.031,–,inactive: -0.223,inactive: 0.183,–,inactive: 0.067,inactive: -0.122,–,–,–,inactive: 0.011,inactive: 0.031,–,inactive: -0.091,inactive: -0.208,inactive: 0.25,inactive: 0.039,inactive: -0.012,inactive: -0.089,–
SH2D1B (UniProt O14796),inactive: -0.294,inactive: -0.059,inactive: -0.218,inactive: -0.098,inactive: 0.057,–,inactive: -0.228,inactive: -0.406,inactive: -0.036,inactive: 0.028,inactive: 0.202,–,active: -1.57,inactive: 0.042,inactive: -0.052,inactive: 0.095,inactive: 0.005,inactive: 0.027,–,inactive: -0.004
SFT2D3 (UniProt Q587I9),inactive: 0.055,–,inactive: -0.015,inactive: 0.031,–,inactive: -0.042,inactive: -0.045,–,inactive: -0.061,inactive: -0.197,inactive: -0.028,inactive: -0.023,–,inactive: 0.204,inactive: -0.016,inactive: -0.036,inactive: -0.112,inactive: -0.073,inactive: 0.048,inactive: -0.007
SHROOM1 (UniProt Q2M3G4),inactive: 0.044,inactive: 0.255,inactive: 0.115,inactive: -0.023,inactive: -0.255,inactive: 0.2,inactive: -0.139,inactive: 0.105,–,–,–,inactive: 0.173,inactive: -0.234,inactive: -0.027,inactive: -0.142,inactive: -0.097,inactive: 0.209,–,–,–
SELENOM (UniProt Q8WWX9),inactive: -0.106,–,inactive: -0.031,inactive: 0.016,–,–,–,–,–,–,–,–,–,–,inactive: -0.127,inactive: 0,–,–,inactive: 0.026,–
SGSH (UniProt P51688),inactive: 0.047,–,–,inactive: 0.116,–,–,–,–,–,–,–,–,–,–,–,inactive: 0.066,–,–,inactive: 0.069,–
SERPING1 isoform 3 (UniProt P05155),inactive: -0.309,–,–,inactive: 0.292,–,–,–,–,inactive: 0.109,inactive: 0.15,–,–,–,–,–,inactive: 0.074,–,–,–,inactive: -0.085
SIK3 (UniProt H0Y4E8),inactive: -0.074,inactive: 0.045,–,inactive: 0.094,inactive: 0.074,–,inactive: -0.163,inactive: -0.099,inactive: 0.051,inactive: 0.15,inactive: 0.043,–,active: -0.425,inactive: 0.135,–,inactive: 0.186,inactive: -0.167,inactive: -0.036,–,inactive: -0.124
SH2D2A isoform 2 (UniProt Q9NP31),inactive: -0.127,inactive: -0.103,–,inactive: 0.043,inactive: 0.25,–,–,inactive: -0.044,–,–,inactive: 0.003,–,inactive: -0.035,–,–,inactive: 0.077,–,inactive: 0.053,inactive: -0.034,–
SFT2D2 (UniProt O95562),inactive: 0.153,inactive: -0.082,inactive: 0.029,inactive: -0.015,inactive: 0.095,inactive: 0.057,inactive: -0.146,inactive: -0.058,inactive: 0.04,inactive: 0.043,–,inactive: 0.053,inactive: -0.07,inactive: 0.055,inactive: 0.038,inactive: -0.032,inactive: -0.144,–,inactive: -0.049,inactive: -0.076
SIK2 (UniProt Q9H0K1),inactive: -0.133,–,–,inactive: 0.126,–,inactive: 0.27,inactive: 0.02,–,–,–,–,inactive: 0.08,–,inactive: -0.05,–,inactive: -0.058,inactive: 0.051,–,–,–
SIGIRR (UniProt H0YDR5),inactive: 0.181,–,–,inactive: -0.122,–,–,–,–,–,–,inactive: -0.151,–,–,–,–,inactive: 0.13,–,inactive: 0.635,–,–
SH3PXD2B (UniProt A1X283),inactive: 0,inactive: -0.036,inactive: -0.013,inactive: -0.153,inactive: 0.04,inactive: -0.012,–,inactive: 0.04,inactive: -0.034,inactive: 0.132,–,inactive: -0.115,inactive: -0.005,–,inactive: 0.035,inactive: 0.075,–,–,–,inactive: 0.027
SEPTIN10 isoform 2 (UniProt Q9P0V9),inactive: 0.071,inactive: 0.004,inactive: 0.119,inactive: 0.09,inactive: 0.013,inactive: -0.046,–,inactive: -0.007,inactive: 0.087,inactive: 0.084,–,inactive: 0.079,inactive: -0.042,–,inactive: 0.037,inactive: 0.044,–,–,inactive: 0.037,inactive: -0.155
SFXN4 isoform 3 (UniProt Q6P4A7),inactive: 0.079,inactive: 0.12,–,inactive: 0.165,inactive: -0.074,inactive: 0.04,–,inactive: -0.002,inactive: -0.139,inactive: 0.051,–,inactive: 0.038,inactive: 0.055,–,–,inactive: -0.167,–,–,–,inactive: 0
SKAP2 (UniProt O75563),inactive: 0.099,inactive: 0.04,–,inactive: 0.052,inactive: -0.081,–,inactive: 0.009,inactive: -0.019,inactive: 0.232,inactive: 0.294,inactive: -0.067,–,inactive: -0.061,inactive: -0.011,–,inactive: -0.133,inactive: 0.069,inactive: 0.042,–,inactive: -0.092
SERPIND1 (UniProt P05546),inactive: -0.239,–,inactive: 0.024,inactive: 0.128,–,–,–,–,–,–,inactive: -0.022,–,–,–,inactive: 0.184,inactive: 0.218,–,inactive: -0.133,inactive: -0.486,–

# Four entries from above, with tabs.
Target	log2 fold change (erlotinib)	log2 fold change [1]	log2 fold change [2]	log2 fold change [3]	log2 fold change [4]	log2 fold change [5]	log2 fold change [6]	log2 fold change [7]	log2 fold change [8]	log2 fold change [9]	log2 fold change (IRAK-1-4 Inhibitor I)	log2 fold change (ibrutinib)	log2 fold change [10]	log2 fold change (ralimetinib)	log2 fold change [11]	log2 fold change [12]	log2 fold change [13]	log2 fold change (pinometostat)	log2 fold change [14]	log2 fold change [15]
SH2D2A isoform 2 (UniProt Q9NP31)	inactive: -0.127	inactive: -0.103	–	inactive: 0.043	inactive: 0.25	–	–	inactive: -0.044	–	–	inactive: 0.003	–	inactive: -0.035	–	–	inactive: 0.077	–	inactive: 0.053	inactive: -0.034	–
SFT2D2 (UniProt O95562)	inactive: 0.153	inactive: -0.082	inactive: 0.029	inactive: -0.015	inactive: 0.095	inactive: 0.057	inactive: -0.146	inactive: -0.058	inactive: 0.04	inactive: 0.043	–	inactive: 0.053	inactive: -0.07	inactive: 0.055	inactive: 0.038	inactive: -0.032	inactive: -0.144	–	inactive: -0.049	inactive: -0.076
SIK2 (UniProt Q9H0K1)	inactive: -0.133	–	–	inactive: 0.126	–	inactive: 0.27	inactive: 0.02	–	–	–	–	inactive: 0.08	–	inactive: -0.05	–	inactive: -0.058	inactive: 0.051	–	–	–
SIGIRR (UniProt H0YDR5)	inactive: 0.181	–	–	inactive: -0.122	–	–	–	–	–	–	inactive: -0.151	–	–	–	–	inactive: 0.13	–	inactive: 0.635	–	–
